# Experiment: Odour description
row,SMILES,Odour description
1,"Cc1cccc(C(C#N)=C2CCCCC2)c1 [Example 4, Cyclohexylidene-m-tolyl-acetonitrile, reference compound]","floral, citrus"
2,"Cc1ccccc1C(C#N)=C1CCCCC1 [Example 1, Cyclohexylidene-o-tolyl-acetonitrile]","fruity, rosy, Lychee, Palmarosa, Rosacetol"
3,"Cc1ccc(C(C#N)=C2CCCCC2)cc1 [Example 2, Cyclohexylidene-p-tolyl-acetonitrile, reference compound]","floral, rosy, sweet, vanilla"
4,"COc1ccccc1C(C#N)=C1CCCCC1 [Example 5, Cyclohexylidene-(2-methoxy-phenyl)-acetonitrile]","floral, rosy, sweet, citronellol"
5,"Cc1ccccc1C(C#N)=C1CCCCC1C (mixture of isomers) [Example 6, (E/Z)-2-(2-methylcyclohexylidene)-2-o-tolylacetonitrile]","balsamic, sweet, cinnamic, plum"
6,"Cc1ccccc1C(C#N)=C1CCCC1 [Example 3, Cyclopentylidene-o-tolyl-acetonitrile]","floral, citrus"

# From patent US7655701B2, “Cycloalkylidene-(ortho substituted phenyl)-acetonitriles and their use as odorants” (Givaudan SA, priority 2005, dated 2010)
